Measured values published in patent publication US6261768.

Legend:
Test in all cases: enzyme reaction in vitro
[1] = system: AvrII restriction endonuclease; conditions: purified native protein, protein details: New England Biolabs, only the site is given
[2] = system: BsaJI restriction endonuclease; conditions: cleaves; purified native protein; protein details: New England Biolabs; only the site is given
[3] = system: BslI restriction endonuclease; conditions: wild-type amplification inhibited; pH 8.5, 1 mM DTT, 6 mM MgCl2; purified native protein; protein details: New England Biolabs
[4] = system: BstNI restriction endonuclease; conditions: purified native protein, protein details: New England Biolabs

“TATAAACTTGTGGTAGTTGGACCTAG / GGATGACTCATTAAGGCACTCTTGCCTACGCCC [A549 mutant AG amplicon (5BKIT/3AKIP, 58 bp)]” was tested, and the “activity on this sequence” value ([1]; cleaves) was “active” and the “activity on this sequence” value [2] was “active”.
“TATAAACTTGTGGTACCTGGAGC (double strand) [K-ras codon 12 wild-type amplicon (5BKIQ/3KiH)]” was tested, and the “activity on this sequence” value [3] was “active”.
For “TATAAACTTGTGGTAGTTGGACCT (double strand) [K-ras codon 12 wild-type amplicon (5BKIT/3KiE)]”, the “activity on this sequence” value ([4]; amplification fully inhibited by BstNI in REMS-PCR, 100 mM NaCl, 50 mM Tris pH 8.3, 6 mM MgCl2 (5 mM in Ex 4)) was “active”.
In the case of “GACTGAATATAAACTTGTGGTAGTTGGACCT (double strand) [K-ras wild-type amplicon (5BKIM/3AKIL, 103 bp)]”, the “activity on this sequence” value ([4]; 103 bp digested to 73 bp, NEB2, BSA, 60 C overnight, only the site is given) is reported as “active”.
In the case of “TATAAACTTGTGGTAGTTGGACCT / CTGTATCAAAGCTTGGTCCTGGACCAG [3MKiC control amplicon (5BKIT/3MKiC, 156 bp)]”, the “activity on this sequence” value ([4]; control fragment absent in all BstNI reactions, only the site is given) is reported as “active”.
“TATAAACTTGTGGTAGTTGGACCTTG / GGATGACTCATTAAGGCACTCTTGCCTACGCCC [Calu I mutant TG amplicon (5BKIT/3AKIP, 58 bp)]” was tested, and the “activity on this sequence” value ([1]; resistant) was “not active” and the “activity on this sequence” value [2] was “active”.

The exact form of at least one protein or probe is not confirmed. For some assays here: A negative result means that nothing was seen under these conditions.
